Reference: the supplement of paper PMC8612539
In brackets after ≈: the same amount, converted by molar mass. Further values from the same series stand in other lists.

Test system: Escherichia coli
Assay: minimum inhibitory concentration (MIC)
Method: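 Broth microdilution MIC (Sensititre BOPO7F bovine plate, CLSI methods) of 19 antimicrobials against field isolates of P. multocida, M. haemolytica, H. somni (deep nasopharyngeal swabs) and E. coli, Enterococcus spp. (rectal swabs) from weaned dairy heifers. Incubation 16-24 h at 35 C. MIC is the lowest concentration preventing visible growth. Values with <= or > lie at the tested range limits. Trimethoprim-sulfamethoxazole is given as the trimethoprim component of a 1:19 mixture.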

CC[C@H]1OC(=O)C[C@@H](O)[C@H](C)[C@@H](O[C@@H]2O[C@H](C)[C@@H](O)[C@H](N(C)C)[C@H]2O)[C@@H](CCN2CCCCC2)C[C@@H](C)C(=O)/C=C/C(C)=C/[C@@H]1CN1CCCCC1 [Tildipirosin]
Details	minimum inhibitory concentration [µg/mL]
isolate (source animal id): 221	4 (≈ 5.45 µM)
isolate (source animal id): 222	4 (≈ 5.45 µM)
isolate (source animal id): 223	4 (≈ 5.45 µM)
isolate (source animal id): 224	4 (≈ 5.45 µM)
isolate (source animal id): 225	8 (≈ 10.9 µM)
isolate (source animal id): 226	4 (≈ 5.45 µM)
isolate (source animal id): 227	2 (≈ 2.72 µM)
isolate (source animal id): 228	2 (≈ 2.72 µM)
isolate (source animal id): 229	8 (≈ 10.9 µM)
isolate (source animal id): 230	4 (≈ 5.45 µM)
isolate (source animal id): 231	8 (≈ 10.9 µM)
isolate (source animal id): 232	8 (≈ 10.9 µM)
isolate (source animal id): 233	2 (≈ 2.72 µM)
isolate (source animal id): 234	4 (≈ 5.45 µM)
isolate (source animal id): 235	4 (≈ 5.45 µM)
isolate (source animal id): 236	4 (≈ 5.45 µM)
isolate (source animal id): 237	4 (≈ 5.45 µM)
isolate (source animal id): 238	4 (≈ 5.45 µM)
isolate (source animal id): 239	2 (≈ 2.72 µM)
isolate (source animal id): 240	4 (≈ 5.45 µM)
isolate (source animal id): 241	4 (≈ 5.45 µM)
isolate (source animal id): 242	4 (≈ 5.45 µM)
isolate (source animal id): 243	4 (≈ 5.45 µM)
isolate (source animal id): 244	8 (≈ 10.9 µM)
isolate (source animal id): 245	4 (≈ 5.45 µM)
isolate (source animal id): 246	8 (≈ 10.9 µM)
isolate (source animal id): 247	2 (≈ 2.72 µM)
isolate (source animal id): 248	4 (≈ 5.45 µM)
isolate (source animal id): 249	4 (≈ 5.45 µM)
isolate (source animal id): 250	4 (≈ 5.45 µM)
isolate (source animal id): 251	4 (≈ 5.45 µM)
isolate (source animal id): 252	4 (≈ 5.45 µM)
isolate (source animal id): 253	4 (≈ 5.45 µM)
isolate (source animal id): 254	4 (≈ 5.45 µM)
isolate (source animal id): 255	4 (≈ 5.45 µM)
isolate (source animal id): 256	8 (≈ 10.9 µM)
isolate (source animal id): 257	4 (≈ 5.45 µM)
isolate (source animal id): 258	4 (≈ 5.45 µM)
isolate (source animal id): 259	4 (≈ 5.45 µM)
isolate (source animal id): 260	8 (≈ 10.9 µM)
isolate (source animal id): 261	4 (≈ 5.45 µM)
isolate (source animal id): 262	4 (≈ 5.45 µM)
isolate (source animal id): 263	4 (≈ 5.45 µM)
isolate (source animal id): 264	8 (≈ 10.9 µM)
isolate (source animal id): 265	8 (≈ 10.9 µM)
isolate (source animal id): 266	2 (≈ 2.72 µM)
isolate (source animal id): 267	2 (≈ 2.72 µM)
isolate (source animal id): 268	4 (≈ 5.45 µM)
isolate (source animal id): 269	4 (≈ 5.45 µM)
isolate (source animal id): 270	8 (≈ 10.9 µM)
isolate (source animal id): 271	2 (≈ 2.72 µM)
isolate (source animal id): 272	4 (≈ 5.45 µM)
isolate (source animal id): 273	4 (≈ 5.45 µM)
isolate (source animal id): 274	4 (≈ 5.45 µM)
isolate (source animal id): 275	2 (≈ 2.72 µM)
isolate (source animal id): 276	8 (≈ 10.9 µM)
isolate (source animal id): 277	4 (≈ 5.45 µM)
isolate (source animal id): 278	8 (≈ 10.9 µM)
isolate (source animal id): 279	8 (≈ 10.9 µM)
isolate (source animal id): 280	8 (≈ 10.9 µM)
isolate (source animal id): 281	4 (≈ 5.45 µM)
isolate (source animal id): 282	4 (≈ 5.45 µM)
isolate (source animal id): 283	4 (≈ 5.45 µM)
isolate (source animal id): 284	4 (≈ 5.45 µM)
isolate (source animal id): 285	2 (≈ 2.72 µM)
isolate (source animal id): 286	8 (≈ 10.9 µM)
isolate (source animal id): 287	4 (≈ 5.45 µM)
isolate (source animal id): 288	4 (≈ 5.45 µM)
isolate (source animal id): 289	4 (≈ 5.45 µM)
isolate (source animal id): 290	4 (≈ 5.45 µM)
isolate (source animal id): 291	4 (≈ 5.45 µM)
isolate (source animal id): 292	4 (≈ 5.45 µM)
isolate (source animal id): 293	4 (≈ 5.45 µM)
isolate (source animal id): 294	≤ 1
isolate (source animal id): 295	4 (≈ 5.45 µM)
isolate (source animal id): 296	4 (≈ 5.45 µM)
isolate (source animal id): 297	2 (≈ 2.72 µM)
isolate (source animal id): 298	4 (≈ 5.45 µM)
isolate (source animal id): 299	4 (≈ 5.45 µM)
isolate (source animal id): 300	2 (≈ 2.72 µM)
isolate (source animal id): 301	4 (≈ 5.45 µM)
isolate (source animal id): 302	4 (≈ 5.45 µM)
isolate (source animal id): 303	8 (≈ 10.9 µM)
isolate (source animal id): 304	4 (≈ 5.45 µM)
isolate (source animal id): 305	4 (≈ 5.45 µM)
isolate (source animal id): 306	4 (≈ 5.45 µM)
isolate (source animal id): 307	4 (≈ 5.45 µM)
isolate (source animal id): 308	4 (≈ 5.45 µM)
isolate (source animal id): 309	4 (≈ 5.45 µM)
isolate (source animal id): 310	4 (≈ 5.45 µM)
isolate (source animal id): 311	4 (≈ 5.45 µM)
isolate (source animal id): 312	2 (≈ 2.72 µM)
isolate (source animal id): 313	4 (≈ 5.45 µM)
isolate (source animal id): 314	4 (≈ 5.45 µM)
isolate (source animal id): 315	8 (≈ 10.9 µM)
isolate (source animal id): 316	4 (≈ 5.45 µM)
isolate (source animal id): 317	2 (≈ 2.72 µM)
isolate (source animal id): 318	2 (≈ 2.72 µM)
isolate (source animal id): 319	4 (≈ 5.45 µM)
isolate (source animal id): 320	8 (≈ 10.9 µM)
isolate (source animal id): 321	2 (≈ 2.72 µM)
isolate (source animal id): 322	4 (≈ 5.45 µM)
isolate (source animal id): 323	4 (≈ 5.45 µM)
isolate (source animal id): 324	4 (≈ 5.45 µM)
isolate (source animal id): 325	4 (≈ 5.45 µM)
isolate (source animal id): 326	2 (≈ 2.72 µM)
isolate (source animal id): 327	2 (≈ 2.72 µM)
isolate (source animal id): 328	8 (≈ 10.9 µM)
isolate (source animal id): 329	4 (≈ 5.45 µM)
isolate (source animal id): 330	4 (≈ 5.45 µM)
isolate (source animal id): 331	4 (≈ 5.45 µM)
isolate (source animal id): 332	4 (≈ 5.45 µM)
isolate (source animal id): 333	4 (≈ 5.45 µM)
isolate (source animal id): 334	4 (≈ 5.45 µM)
isolate (source animal id): 335	4 (≈ 5.45 µM)
isolate (source animal id): 336	8 (≈ 10.9 µM)
isolate (source animal id): 337	4 (≈ 5.45 µM)
isolate (source animal id): 338	4 (≈ 5.45 µM)
isolate (source animal id): 339	4 (≈ 5.45 µM)
isolate (source animal id): 340	4 (≈ 5.45 µM)
isolate (source animal id): 341	4 (≈ 5.45 µM)
